Experimental data from PMC11520541.
No constants are given. Whether binding was seen depends on the method and setting. In cells and extracts the contact can be indirect. Some results given as binding are weak or reduced against the parent protein; the word gives no strength. For some assays here: Sequences can lack the tags named with a protein.

Chains of the proteins cited; added tags and fusions are not shown.
UniProt P46937: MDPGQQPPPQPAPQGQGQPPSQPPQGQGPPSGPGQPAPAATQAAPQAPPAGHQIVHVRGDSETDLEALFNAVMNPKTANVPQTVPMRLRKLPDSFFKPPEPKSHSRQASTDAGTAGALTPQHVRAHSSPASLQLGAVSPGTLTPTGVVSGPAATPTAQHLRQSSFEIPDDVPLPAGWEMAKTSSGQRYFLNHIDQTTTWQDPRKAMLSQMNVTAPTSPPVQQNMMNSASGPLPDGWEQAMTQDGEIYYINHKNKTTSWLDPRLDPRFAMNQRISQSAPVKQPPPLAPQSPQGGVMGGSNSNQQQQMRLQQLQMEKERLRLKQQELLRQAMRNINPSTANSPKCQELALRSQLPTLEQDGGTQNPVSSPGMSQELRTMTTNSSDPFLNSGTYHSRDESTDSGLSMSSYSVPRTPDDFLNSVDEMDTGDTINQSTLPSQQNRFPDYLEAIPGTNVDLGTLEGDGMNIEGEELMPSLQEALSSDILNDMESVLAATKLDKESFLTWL

How the values were obtained:
[1] = target: YAP1, endogenous (human (endogenous in MDA-MB-231 and BT549)) (UniProt P46937); assay: co-IP; endogenous proteins of MDA-MB-231 and BT549 cells; immunoprecipitation lysis buffer with PMSF and phosphatase inhibitors; protein A and protein G agarose beads; western blot
HA-tagged YAP1 = HA-tagged YAP1 (UniProt P46937); assay: co-IP; FLAG-DLAT and HA-YAP1 plasmids co-transfected into HEK293T, MDA-MB-231 and BT549 cells; immunoprecipitation lysis buffer; protein A and protein G agarose beads; western blot

B1: dihydrolipoamide S-acetyltransferase (DLAT), endogenous (protein, UniProt P10515 87-647)
chain: SLPPHQKVPLPSLSPTMQAGTIARWEKKEGDKINEGDLIAEVETDKATVGFESLEECYMAKILVAEGTRDVPIGAIICITVGKPEDIEAFKNYTLDSSAAPTPQAAPAPTPAATASPPTPSAQAPGSSYPPHMQVLLPALSPTMTMGTVQRWEKKVGEKLSEGDLLAEIETDKATIGFEVQEEGYLAKILVPEGTRDVPLGTPLCIIVEKEADISAFADYRPTEVTDLKPQVPPPTPPPVAAVPPTPQPLAPTPSAPCPATPAGPKGRVFVSPLAKKLAVEKGIDLTQVKGTGPDGRITKKDIDSFVPSKVAPAPAAVVPPTGPGMAPVPTGVFTDIPISNIRRVIAQRLMQSKQTIPHYYLSIDVNMGEVLLVRKELNKILEGRSKISVNDFIIKASALACLKVPEANSSWMDTVIRQNHVVDVSVAVSTPAGLITPIVFNAHIKGVETIANDVVSLATKAREGKLQPHEFQGGTFTISNLGMFGIKNFSAIINPPQACILAIGASEDKLVPADNEKGFDVASMMSVTLSCDHRVVDGAVGAQWLAEFRKYLEKPITMLL
- binding [1]: binds

B2: FLAG-tagged DLAT (protein, UniProt P10515 87-647)
chain: B1 chain
- binding (HA-tagged YAP1): binds
